Tested on: nerve cells (N2a)
Assay: Self-aggregate formation of peptide overexpressed in nerve cells (N2a), immunofluorescence
Assay type: cell-based, mouse
Conditions: FIG. 4
Experimental: Twenty-four hours after the transfection, N2a cells were incubated in a 4% paraformaldehyde fixation solution for 15 minutes. The cells were washed with PBS three times, and incubated in a 50 mM NH4Cl/PBS quenching solution for 10 minutes.
Subsequently, the cells were washed with PBS three times, and incubated in a 0.1% Triton X-100/PBS solution for 5 minutes. The cells were then treated and incubated with 2% FBS/blocking buffer at room temperature for 1 hour. The cells were then treated and incubated with FLAG antibodies diluted 1/100 at room temperature for 2 hours, washed with PBS three times, and then treated and incubated with a goat anti-mouse Alexa Fluor®-red 594 dye.
The sample was washed with PBS three times, and mounted on a glass slide using a FluoroGuard Antifade reagent (Bio-Rad Laboratories, Inc.). A fluorescent image was obtained using a confocal laser scanning microscope (Zeiss LSM 510 Meta, Carl Zeiss AG), and processed using Adobe® Photoshop®, and a fluorescence signal intensity was measured using a ZEN 2009 Light Edition software program.
To identify whether a self-aggregate of the peptide (NABi) of the present invention was formed, the peptide of the present invention was overexpressed in nerve cells (N2a), and then measured by an immunofluorescence method.

Substance: G93A: SOD1 mutant in which the 93th amino acid glycine was changed to alanine; aggregation and apoptosis comparator [Peptide G93A, reference compound]
- Nerve cells with protein aggregates: ≥ 60%
